The values below come from patent US9856511B2, “Protease deubiquitinating inhibitor screening” (priority 2011, dated 2018).

The structures appear in SMILES notation. Several values for one entry are separate records, joined by “and”; a condition that tells them apart may be missing. Equal values may be shown once.

In the series the test system is MCF7 cells. Briefly: Connectivity Map (CMAP) comparison of the b-AP15 gene expression signature. As to conditions: MCF7 cells treated with b-AP15 1 μM for 6 h.
`CC(C)C[C@H](NC(=O)[C@H](CC(C)C)NC(=O)[C@H](CC(C)C)NC(=O)OCc1ccccc1)B(O)O` [MG-262]: the “CMAP Score (similarity to the b-AP15 expression signature)” value was found to be 1.

Take `CCCCC/C=C/C=C1/C(=O)C=C[C@@H]1C/C=C\CCCC(=O)O` [15 Δ prostaglandin J2]: the “CMAP Score (similarity to the b-AP15 expression signature)” value was 0.999 and 0.940. Next, `CC1=C(CO)C(=O)O[C@@H]([C@@H](C)[C@H]2CC[C@H]3[C@@H]4C[C@H]5O[C@]56[C@@H](O)C=CC(=O)[C@]6(C)[C@H]4CC[C@]23C)C1` [Withaferin A]: 0.922.
